± gives the standard deviation. The list shows a part of the results. The uncertainty is large for many entries.
System: EfPiwi piRISC loaded with L1MC piRNA (26 nt)
Test: pre-steady-state target cleavage rate (min^-1); guide: L1MC piRNA 5'p-UAACUAAAUACUAUGCAAGCUGUAGG; MIWI and MILI are mouse PIWI proteins and EfPiwi is from a freshwater sponge; tags in brackets are library labels; higher = faster piRNA-guided slicing of the target
Settings: auxiliary factor: 500 nM Ephydatia muelleri Gtsf1
Procedure, shortened: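 Reactions were run for 0–8 or 0–960 min at 33 °C in HEPES–potassium acetate buffer, combining 1 nM active affinity-purified piRISC with one synthetic guide, […] transcribed, DNA-blocked target RNA library and, in some cases, 500 nM GTSF1 partner protein. Sequencing of uncleaved targets followed, with normalisation to depth and to weakly complementary targets. Three trials were pooled, k3 was capped at 0.0001 min^-1, and the pre-steady-state cleavage rate was taken from a burst-and-steady-state fit.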

Sequence | pre-steady-state target cleavage rate
UCCUGGAUGUCGAACGUAUCCAUUUAGUUA | 0.000149 ± 0.028
UCCUGGAUGUCGAAGCAGUAGUAUUUAGUUA | 0.000682 ± 0.0087
UCCUGGAUGUCGAUCCAUAGUAUUUAGUAA | 0.000444 ± 0.013
UCCUGGAUCAGCUUGCUUAGUAUUUUGUUA | 0.00309 ± 0.0034
UCCUGGUAACAGCUUGCAUAGUAUUUAGUUA | 0.0495 ± 0.011
UCCUGGAUGUCCUUGCAUAGUAUUUGGUUA | 0.00366 ± 0.0027
UCCUGGUACAGCGUGCAUAGUAUUUAGUUA | 0.0121 ± 0.004
UCCUGGAUCAGCUAGCAUAGUAUAUAGUUA | 0.0015 ± 0.0035
UCCUGGAACAGCUUGCAUAGUAUUUAGUGA | 0.00437 ± 0.002
UCCUGCUACUGCUUGCAAAGUAUUUAGUUA | 0.00588 ± 0.0023
UCCUGGUCAGCUUGCAUAGUAUUUAGUUA | 0.14 ± 0.027
UCCUCCUAACAGCUUGCAUAGUAUUUAGUUA | 0.0133 ± 0.0051
UCCUGGAUGUCGAACGUUAGUAUUUAGUAUA | 0.000133 ± 0.024
UCCUGCUACAGCUUGCAUAGUACUUAGUUA | 0.00608 ± 0.0018
UCCUGGAUGUCGAUGCAUACUAUUUAGUAA | 0.00114 ± 0.006
UCCUCCAACUGCUUGCAUAGUAUUUAGUUA | 0.0183 ± 0.0064
UCCUGGUAUAGCUUGCAUAGUAUUUAGUUA | 0.0287 ± 0.0075

Pulled one by one from the list above (2):
Sequence | pre-steady-state target cleavage rate
UCCUGGAUGUCGAUGCAUACUAUUUAGUAA | 0.00114 ± 0.006
UCCUCCUAACAGCUUGCAUAGUAUUUAGUUA | 0.0133 ± 0.0051

Later entries.

Sequence | pre-steady-state target cleavage rate
UCCUGCUACAGCUUGCAUAGUAUAAAGUUA | 0.00347 ± 0.0022
UCCUGGAUGUCGAAGCAUAGUAUUUAGUUG [g2:g16:cont:t1G] | 0.00123 ± 0.0061
UCCUCCUACAGCUUGCAAAGUAUUUUGUUA | 0.00453 ± 0.0028
UCCUGGAUGUCGAACGUAUGUAUUUAGAAA | 0.000136 ± 0.041
UCCUCCAACAGGUUGCAUAGUAUUUAGUUA | 0.0491 ± 0.011
UCCUGGAUGUCGAUGCUUAGUAAUUAGUUA | 0.000743 ± 0.0067
UCCUGGAUCAGCUUGCUUAGUAUAUAGUUA | 0.00383 ± 0.0041
UCCUGGAACAGCUUGCUUAGUAUUUACUUA | 0.000882 ± 0.0054
UCCUCCUACAUCUUGCAUAGUAUUUAGUUA | 0.0662 ± 0.02
UCCUGGUACAGCUUGAUAGUAUUUAGUUA | 0.00334 ± 0.004
UCCUGGAUGUCGAACGUAAGUAUUUAGAAA | 0.000201 ± 0.036
UCCUCCGUACAGCUUGCAUAGUAUUUAGUUA | 0.0578 ± 0.018
UCCUGGAUGAGCUUGCUUAGUUUUUAGUUA | 0.00056 ± 0.013
UCCUCCUACAGCUUGCAAAGUAUUUACUUA | 0.00282 ± 0.0024
UCCUCCUACACGUUGCAUAGUAUUUAGUAA | 0.00566 ± 0.0027
UCCUGGAUGAGCUUGCAUAGUAUUUAGUUC [g2:g21:cont:t1C] | 0.039 ± 0.01

Source: the supplement of paper PMC10338343
